# According to the supplement of paper PMC3334620:
# In all, about 33,000 sequences were measured (“E-score (-0.5 to 0.5)”: median about -0.0059, highest 2% from about 0.26 on). The list shows a part of the results.
# Target: T1, Cin5 (UniProt P40917)
# T1 sequence: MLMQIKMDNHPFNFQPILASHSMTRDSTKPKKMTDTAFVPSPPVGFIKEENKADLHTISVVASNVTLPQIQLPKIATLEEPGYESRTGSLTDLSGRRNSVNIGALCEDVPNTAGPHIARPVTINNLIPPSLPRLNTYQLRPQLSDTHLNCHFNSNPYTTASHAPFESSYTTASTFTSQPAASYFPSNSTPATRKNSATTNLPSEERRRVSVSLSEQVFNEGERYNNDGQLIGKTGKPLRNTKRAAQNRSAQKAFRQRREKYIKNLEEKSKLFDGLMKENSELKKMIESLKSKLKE
# Test: PBM E-score (8-mer binding enrichment) (E-score (-0.5 to 0.5)); higher = stronger / more preferred TF binding
# Conditions: protein concentration: 100 nM; construct: GST-full length
# Method: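 Universal 'all 10-mer' protein binding microarrays (Agilent AMADID 015681) probed with GST-tagged S. cerevisiae TFs (full-length or DBD) made by in vitro transcription/translation (PURExpress), about 100-200 nM. Bound TF was detected with fluorescent anti-GST. Each ungapped 8-mer (which stands for itself and its reverse complement) is scored by the PBM enrichment score (E-score), a modified Wilcoxon-Mann-Whitney statistic from -0.5 to +0.5, computed with the Universal PBM Analysis Suite. Scale: above 0.35 generally sequence-specific binding.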
row,Sequence,PBM E-score
1,CCTACACG,-0.231
2,CCTTGCGC,-0.0397
3,ACAGCAGA,-0.00672
4,CCAAAGGG,-0.191
5,ACACTGTC,-0.19
6,ACGAAGAT,0.116
7,GCGGAGCA,-0.059
8,AAGCACTC,-0.0467
9,AATTTCAC,0.0675
10,ACTCGTCT,0.117
11,ACATCTTA,-0.0269
12,CGCATAGC,-0.165
13,GGGAACAA,0.0662
14,CGAGGGAA,-0.0115
15,CTATTGGC,-0.124
16,GAGTGAGC,-0.00717
17,AGTCCGCG,-0.00619
18,AAGGTCAG,-0.178
19,TCGGGGAA,0.0882
20,CCCACGAC,-0.199
21,CGGGTTAG,-0.14
22,AATTGAGC,0.0103
23,CCAACTCC,0.0416
24,AAGGCTAG,0.00053
25,CGTTGGCC,-0.273

row,Sequence,PBM E-score
1,ACCCTGTA,0.00016
2,ACTGTACT,0.0414
3,ATCATGTC,0.127
4,ATAATAGG,0.207
5,CAGAGGGG,-0.403
6,CTCTATTA,0.0158
7,CGTTACAG,0.108
8,GTTACACA,0.0266
9,AGGGTTCA,-0.0509
10,CTATTTTA,0.231
11,ATCGTTAA,0.166
12,CCAACAAG,-0.0134
13,GTAATGTA,0.0916
14,AGTGGTCC,-0.116
15,CCTGGTAC,-0.1
16,AGCAAGGG,-0.0739
17,GAGCCGGA,-0.178
18,CTTTGTAA,0.115
19,AAAGAACG,0.0795
20,AACGTACC,-0.168
21,ACCATTCC,0.097
22,ACGGACAG,-0.0736
23,CGTAGGGA,-0.113
24,AACTCAGC,0.101
25,CAATGAAA,0.0978

row,Sequence,PBM E-score
1,CGTTGGAA,-0.0966
2,AGTAACCG,0.0599
3,CCTCCCCA,0.0288
4,AACATTGC,-0.141
5,AAGCAAAC,0.215
6,AAGCTTCT,0.0451
7,AGTTTTCA,-0.0513
8,AGGATGGG,-0.0351
9,ATAGTGTA,0.167
10,GGGATACC,-0.21
11,CACAAGAA,0.141
12,GATACCAC,0.131
13,ACGAGCTC,-0.0839
14,TGTCTGAA,-0.0637
15,ACGCGAGT,0.0274
16,CATAGCAG,-0.254
17,GGTCGACA,-0.0979
18,AGGTCTAG,-0.175
19,AGATATAG,0.149
20,CTCACGGA,0.00719
21,ATTGGGAC,0.137
22,ACACTGCC,0.14
23,ACAGAGGG,-0.254
24,ATTGTATC,0.132
25,CCCCAGGC,-0.264

row,Sequence,PBM E-score
1,ATCAACCG,0.0693
2,ATAATTAT,0.341
3,CCTCTACC,-0.068
4,ACCTTTCT,0.044
5,ATAAATGC,0.0853
6,CTTGTGCC,-0.213
7,GTGAATAA,0.235
8,ATGCTTTG,0.00636
9,CGTAAAAA,0.0224
10,AGACACAA,0.0122
11,AGGACCCT,-0.286
12,TATGCATA,0.0485
13,TGGTTAAA,0.0576
14,CTCAGAGA,-0.0852
15,CATTTAGA,-0.016
16,ACTTTCCA,0.205
17,GGGATTAC,0.264
18,GTCATCCA,0.201
19,ATTCGGCC,0.0607
20,ATATCGTG,-0.0718
21,AATGGCCG,-0.0456
22,AAGGAACA,-0.0921
23,GAAGTGCC,-0.182
24,CGCACATC,0.0232
25,CTCTCGTC,-0.0573

row,Sequence,PBM E-score
1,CCAAACAC,-0.0256
2,GCGTGGGA,-0.0838
3,AATACCAG,0.176
4,AACCGCTG,-0.0663
5,GCATTCTA,0.0846
6,CGAAAGGA,0.075
7,AAAGCACG,-0.147
8,CACCCCCA,-0.424
9,AAGACCTG,-0.0993
10,AAAGCGAG,0.119
11,CTAGCTGA,0.0658
12,TGCGGGAA,0.0931
13,AGTTATCC,0.134
14,GCTCAACC,-0.166
15,GAAATTGA,0.0828
16,AAGAGAAA,-0.0461
17,AGTAAGAA,0.149
18,ACGTGTCC,-0.217
19,ACGTACGA,-0.0268
20,ATGGCGAG,-0.0288
21,CAGCCGTA,-0.0293
22,AGTATGGA,0.081
23,AGCCCGTG,-0.258
24,CACGATGA,0.0588
25,GTTAAAGA,-0.0778

# Quoted from the entries so far (40 entries):
row,Sequence,PBM E-score
11,AGGACCCT,-0.286
12,TATGCATA,0.0485
13,TGGTTAAA,0.0576
14,CTCAGAGA,-0.0852
15,CATTTAGA,-0.016
16,ACTTTCCA,0.205
17,GGGATTAC,0.264
18,GTCATCCA,0.201
19,ATTCGGCC,0.0607
20,ATATCGTG,-0.0718
21,AATGGCCG,-0.0456
22,AAGGAACA,-0.0921
23,GAAGTGCC,-0.182
24,CGCACATC,0.0232
25,CTCTCGTC,-0.0573
1,CCAAACAC,-0.0256
2,GCGTGGGA,-0.0838
3,AATACCAG,0.176
4,AACCGCTG,-0.0663
5,GCATTCTA,0.0846
6,CGAAAGGA,0.075
7,AAAGCACG,-0.147
8,CACCCCCA,-0.424
9,AAGACCTG,-0.0993
10,AAAGCGAG,0.119
11,CTAGCTGA,0.0658
12,TGCGGGAA,0.0931
13,AGTTATCC,0.134
14,GCTCAACC,-0.166
15,GAAATTGA,0.0828
16,AAGAGAAA,-0.0461
17,AGTAAGAA,0.149
18,ACGTGTCC,-0.217
19,ACGTACGA,-0.0268
20,ATGGCGAG,-0.0288
21,CAGCCGTA,-0.0293
22,AGTATGGA,0.081
23,AGCCCGTG,-0.258
24,CACGATGA,0.0588
25,GTTAAAGA,-0.0778

# Additional results

row,Sequence,PBM E-score
1,AATCAGGC,0.12
2,ACCCTCCT,-0.218
3,GATTGAGC,0.0455
4,CAGTAGCA,-0.0186
5,GGTGCAAA,-0.0911
6,ATACCAGA,0.193
7,ACCAGACG,-0.119
8,GGGCCGGA,-0.201
9,ACGAGGCC,-0.292
10,AACGGGGG,-0.286
11,ATGGTGTG,0.063
12,GCTTTCAC,-0.0478
13,ACTTCCAC,0.048
14,AAGGGAAA,-0.0882
15,CCGAAGCG,-0.12
16,ATCCAACA,0.0603
17,CCTGTATC,0.106
18,GCCGAGTA,-0.209
19,ATGTTGCG,0.0768
20,CATACTAG,0.207
21,AGGTACCA,-0.208
22,AGATCAAC,0.0687
23,ATCTAAGC,0.0466
24,ACCGGTGA,-0.188
25,CCCACACG,0.0465

row,Sequence,PBM E-score
1,AGGTTTTG,-0.037
2,CACCCCCG,-0.182
3,ATCTACCC,0.178
4,CCATTACG,0.0601
5,GCCCTCCA,-0.212
6,ACAACTGA,0.18
7,ACAACTCT,-0.0384
8,ACTGTGCG,0.0559
9,ACCTCCGA,-0.288
10,ATTGTGTG,0.0687
11,AGAGTATC,0.148
12,GGATGGCA,0.27
13,GGCTTACA,0.332
14,TACGTATA,0.167
15,AAGGGACA,-0.142
16,GGGGCGAA,-0.0333
17,AAAGCAAT,0.253
18,AACACAAC,0.0594
19,AAATACCA,0.0623
20,GAAGCTAC,-0.068
21,TGTCCTAA,-0.00752
22,GGACTATA,0.0502
